Laboratory results published in PubChem BioAssay AID540276 (National Center for Advancing Translational Sciences (NCATS), 2011).
The campaign covered roughly 300,000 compounds. About 5,400 (1.8%) were called active. Inconclusive means that the source gave no clear call. Such entries were picked first, then a sample of the others. Calls come from the whole dose curve; tested in HEK293 cells. A potency beside an inconclusive call is a rough fit, not a confirmed value.

test: qHTS for inhibitors of binding or entry into cells for Marburg Virus; settings: Marburg virus pseudotyped entry inhibition, cell reporter; series mostly up to 37.8 µM
Potency is the fitted concentration of half-maximal effect.

Compound	Potency
COc1ccc2[nH]c3c(c2c1)CCN1C(=O)C(CC(=O)NCCc2ccccn2)C[C@H](C(=O)N2CCCCC2)[C@@]31CCc1ccccc1 (stereo partly drawn)	inactive
COc1ccc2c(c1)CCc1c(C(=O)Nc3c(C)nn(Cc4ccc(Cl)c(Cl)c4)c3C)noc1-2	inactive
Cc1ccc(S(=O)(=O)c2nc(-c3cccc(C)c3)oc2N2CCN(c3ccccc3)CC2)cc1	inactive
Cc1cccc(/C=N/NC(=O)c2cc(Br)ccc2OCc2ccccc2)n1	inconclusive: 35.5 µM [inhibitor, single point]
Cc1ccc2cc(C=C(C#N)C#N)c(Cl)nc2c1	inactive
Cn1c(N)c(C(=O)N/N=C/c2ccccc2)sc1=S	inconclusive: 2.24 µM [inhibitor, partial curve, poor fit]
Cc1ccc(C2=N/C(=C/c3cccs3)C(=O)N2Nc2ccccc2)cc1	inconclusive: 29.1 µM [inhibitor, single point]
Cc1ccc(C(=O)COC(=O)c2ccccc2NC(=O)c2ccccc2)cc1[N+](=O)[O-]	inactive
Cc1ccc(-c2nnc(SCc3nc4ccccc4[nH]3)n2Cc2ccco2)cc1	inconclusive: 32.6 µM [inhibitor, single point]
COc1cc(C(=O)N/N=C(\C)Cn2nc([N+](=O)[O-])cc2C)ccc1O	inconclusive: 31.6 µM [activator, single point]
Cc1ccccc1CN1CCCC(C(=O)Nc2ccc(-c3ccn[nH]3)cc2)C1 (stereo not drawn)	inconclusive: 17.8 µM [inhibitor, single point]
COc1ccc(C(=O)NNC(=S)NC(=O)C(C)(C)C)cc1	inconclusive: 35.5 µM [inhibitor, partial curve, poor fit]
Cc1c(C(=O)O)[nH]c2ccc([N+](=O)[O-])cc12	inconclusive: 35.5 µM [activator, single point]
CSC1=C(C#N)C(c2ccc(Cl)cc2)C2=C(CC(C)(C)CC2=O)N1 (stereo not drawn)	inconclusive: 35.5 µM [inhibitor, partial curve, poor fit]
O=C(NC1CCCC1)C(c1ccccc1)N(C(=O)c1ccno1)c1cccnc1 (stereo not drawn)	inactive
Cc1cccc(NC(=S)NN2CCOCC2)c1C	inconclusive: 12.6 µM [activator, single point]
O=C(CN1C(=O)CC(c2ccccc2)=Nc2ccccc21)NCc1ccccc1	inconclusive: 35.5 µM [inhibitor, single point]
CCN(CC)S(=O)(=O)c1cccc(C(=O)N/N=C/c2ccc(O)c(O)c2O)c1	inactive
CCSc1nnc(NC(=O)[C@@H](NC(=O)c2cccc(C)c2)C(C)C)s1	inactive
Cc1ccccc1C(=O)Nc1ccc2c(c1)OCO2	inconclusive: 11.2 µM [inhibitor, single point]
Cn1cccc1/C=C1/C(=O)NC(=O)N(Cc2ccc(F)cc2)C1=O	inactive
CCOc1ccc(CC(=O)NNC(=S)Nc2ccccc2)cc1Br	inconclusive: 0.1 µM [activator, full curve, poor fit]
CC(=O)Nc1sc2c(c1C(c1ccc(Cl)cc1)N1CCOCC1)CCCC2 (stereo not drawn)	inconclusive: 35.5 µM [inhibitor, single point]

Compound	Potency
C/C(=N\N=C(N)N)c1ccc(Cl)cc1	inconclusive: 11.6 µM [inhibitor, partial curve, poor fit]
O=C(CNC(=O)c1ccccc1F)c1ccc(Br)cc1	inconclusive: 1.12 µM [activator, partial curve, poor fit]
CCCOc1ccc(-c2nonc2NC(=O)c2oc3ccc(C)cc3c2C)cc1OCCC	inconclusive: 3.16 µM [activator, partial curve, poor fit]
COc1ccc(CNC(=O)/C(C)=C\C(=O)O)cc1	inconclusive: 0.562 µM [inhibitor, full curve, poor fit]
O=C(O)c1ccc(SCc2ccccc2)nc1	inconclusive: 1.26 µM [activator, partial curve, poor fit]
CN1C(=O)c2cccc3c(Br)ccc(c23)C1=O	inconclusive: 3.16 µM [activator, single point]
CC1CCN(C(=O)COC(=O)c2cccc(S(=O)(=O)N(C)c3ccccc3)c2)CC1	inconclusive: 0.316 µM [inhibitor, full curve, poor fit]
O=C(CSc1nc(Nc2ccccc2)nc(N2CCOCC2)n1)N1CCCC1	inconclusive: 10 µM [inhibitor, partial curve, poor fit]
COC(=O)c1c(NS(C)(=O)=O)sc2c1CCCC2	inactive
COc1cccc(Cn2cccc(NC(=O)Nc3ccc(C#N)cc3)c2=O)c1	inconclusive: 18.3 µM [inhibitor, single point]
COc1ccccc1C1CC(c2ccc(Br)cc2)=NN1C(=O)c1cccnc1 (stereo not drawn)	inactive
Cc1ccc2cc3cc(C(=O)NCc4ccc5c(c4)OCO5)oc3nc2c1	inconclusive: 22.4 µM [activator, single point]
COc1ccc([C@H]2[C@H](C(=O)C(C)(C)C)N3N=Cc4ccccc4C3[C@]23N=C(c2ccccc2)OC3=O)cc1 (stereo partly drawn)	inconclusive: 5.17 µM [inhibitor, partial curve, poor fit]
O=C(COC(=O)/C=C/c1nc2ccccc2s1)Nc1cccc(Cl)c1Cl	inconclusive: 2.82 µM [activator, full curve, poor fit]
C(=N\N1CCN(c2ccccn2)CC1)/c1ccco1	inconclusive: 11.2 µM [activator, single point]
CC(C)Oc1cccc(C(=O)C2CCCN(Cc3ccon3)C2)c1 (stereo not drawn)	inconclusive: 35.5 µM [inhibitor, single point]
COc1ccccc1NC(=O)COC(=O)c1cc(C)nc2ccccc12	inconclusive: 0.708 µM [inhibitor, full curve, poor fit]
CC(C)c1ccc(S(=O)(=O)Nc2ccc(-n3cnnn3)cc2)cc1	inconclusive: 10 µM [inhibitor, partial curve, poor fit]
CCc1ccc2oc(-c3cc(NC(=O)C(C)C)cc(C)c3O)nc2c1	inconclusive: 15.8 µM [activator, single point]
C=CCN(CC=C)CCOc1ccc2ccccc2c1	inactive
COC(=O)C1(S(=O)(=O)c2cc(Br)cc3c2N(C(C)=O)CC3)CC1	inactive
CC(C)[C@H](NC(=O)OCc1ccccc1)C(=O)OCC(=O)N1CCN(c2ccccc2)CC1	inactive
CCOc1ccc(Br)cc1S(=O)(=O)NC1=NCCCCC1	inconclusive: 1.26 µM [inhibitor, single point]

Compound	Potency
O=C(O)c1ccc(/C=N/N2CCN(Cc3cccc4ccccc34)CC2)cc1	inconclusive: 13 µM [inhibitor, partial curve, poor fit]
CC(=O)c1ccc(NC(=O)CCC(=O)OCC(=O)c2cccc([N+](=O)[O-])c2)cc1	inactive
Cc1sc2nc(CSC(C)C(=O)Nc3cc(S(C)(=O)=O)ccc3Cl)[nH]c(=O)c2c1C (stereo not drawn)	inactive
c1ccc(Cc2nnc3n2CCCCC3)cc1	inactive
CCC(=O)OCn1nnc2ccccc2c1=O	inactive
COc1cc(S(=O)(=O)N2CCN(Cc3ccccc3)CC2)ccc1Br	inconclusive: 3.16 µM [inhibitor, single point]
O=C(Cn1nnc(-c2ccccc2)n1)OCc1csc(-c2ccccc2)n1	inactive
Cc1cccc(-c2nc3c4ccccc4nc(NCc4ccc(Cl)cc4)n3n2)c1	inconclusive: 14.1 µM [activator, partial curve, poor fit]
CC1Sc2ccc(S(=O)(=O)NCCc3ccc(S(N)(=O)=O)cc3)cc2NC1=O (stereo not drawn)	inactive
Cc1ccc2cc(CN(Cc3ccco3)C(=O)NC3CCCCC3)c(=O)[nH]c2c1C	inconclusive: 29.1 µM [inhibitor, single point]
CCOc1ccccc1N1CC(C(=O)Nc2cccc(S(=O)(=O)N3CCCCC3)c2)CC1=O (stereo not drawn)	inconclusive: 0.316 µM [activator, partial curve, poor fit]
CC(C)(C)c1ccccc1NC(=O)NC1CCN(Cc2c(F)cccc2Cl)CC1	inactive
COc1cc(/C=N/NC(N)=O)c(Br)cc1OCC(=O)Nc1ccccc1C	active: 11.2 µM
CCC1(c2ccc(F)cc2)NC(=O)N(CC(=O)N2c3ccccc3NC(=O)C2(C)C)C1=O (stereo not drawn)	inconclusive: 14.1 µM [inhibitor, single point]
NS(=O)(=O)c1ccc(NC(=O)c2ccc3c(c2)CCN3S(=O)(=O)c2ccccc2)cc1	inactive
CC1CCCN(C(=O)COC(=O)C2CCN(S(=O)(=O)c3ccc4c(c3)OCCO4)CC2)C1 (stereo not drawn)	inconclusive: 0.316 µM [activator, partial curve, poor fit]
O=C(CSc1ccc(-c2ccc(F)cc2)nn1)N1CCOCC1	inconclusive: 14.1 µM [activator, single point]
COc1cccc(NC(=O)CSc2nnc(CNC(=O)c3ccccc3F)o2)c1	inconclusive: 22.4 µM [activator, single point]
CSCCC(NS(=O)(=O)c1ccc(C)cc1)C(=O)N(C)CC(=O)Nc1ccccc1Br (stereo not drawn)	inconclusive: 0.891 µM [activator, single point]
O=C(O)c1cc(-c2ccccc2)c(N2CCOCC2)s1	inactive
COc1cc(C(=O)Nc2cc(OC)c(OC)c(OC)c2)ccc1OCc1c(C)noc1C	inactive
CCOC(=O)c1sc(C)c2c1NC(C)(c1cccc3ccccc13)NC2=O (stereo not drawn)	inconclusive: 17.8 µM [inhibitor, single point]

An excerpt from further up, for reference:
Compound	Potency
CCOc1ccccc1N1CC(C(=O)Nc2cccc(S(=O)(=O)N3CCCCC3)c2)CC1=O (stereo not drawn)	inconclusive: 0.316 µM [activator, partial curve, poor fit]
CC(C)(C)c1ccccc1NC(=O)NC1CCN(Cc2c(F)cccc2Cl)CC1	inactive
